Data from doi:10.1101/266833.
Results are given in words; binding and its absence hold for the method and conditions named. Binding seen in cells or lysates may run through a third protein. Here binding means that the protein was enriched with, or labelled near, the bait; the list need not be complete. For part of these data: No binding means not detected with the bait. Blank lines part the entries; values can stand above or below the binder they belong to.

Key:
Test in all cases: affinity purification with mass spectrometry
[1] = target: T1, TAP-Upf1-FL (S. cerevisiae) (UniProt P30771)
T1 sequence: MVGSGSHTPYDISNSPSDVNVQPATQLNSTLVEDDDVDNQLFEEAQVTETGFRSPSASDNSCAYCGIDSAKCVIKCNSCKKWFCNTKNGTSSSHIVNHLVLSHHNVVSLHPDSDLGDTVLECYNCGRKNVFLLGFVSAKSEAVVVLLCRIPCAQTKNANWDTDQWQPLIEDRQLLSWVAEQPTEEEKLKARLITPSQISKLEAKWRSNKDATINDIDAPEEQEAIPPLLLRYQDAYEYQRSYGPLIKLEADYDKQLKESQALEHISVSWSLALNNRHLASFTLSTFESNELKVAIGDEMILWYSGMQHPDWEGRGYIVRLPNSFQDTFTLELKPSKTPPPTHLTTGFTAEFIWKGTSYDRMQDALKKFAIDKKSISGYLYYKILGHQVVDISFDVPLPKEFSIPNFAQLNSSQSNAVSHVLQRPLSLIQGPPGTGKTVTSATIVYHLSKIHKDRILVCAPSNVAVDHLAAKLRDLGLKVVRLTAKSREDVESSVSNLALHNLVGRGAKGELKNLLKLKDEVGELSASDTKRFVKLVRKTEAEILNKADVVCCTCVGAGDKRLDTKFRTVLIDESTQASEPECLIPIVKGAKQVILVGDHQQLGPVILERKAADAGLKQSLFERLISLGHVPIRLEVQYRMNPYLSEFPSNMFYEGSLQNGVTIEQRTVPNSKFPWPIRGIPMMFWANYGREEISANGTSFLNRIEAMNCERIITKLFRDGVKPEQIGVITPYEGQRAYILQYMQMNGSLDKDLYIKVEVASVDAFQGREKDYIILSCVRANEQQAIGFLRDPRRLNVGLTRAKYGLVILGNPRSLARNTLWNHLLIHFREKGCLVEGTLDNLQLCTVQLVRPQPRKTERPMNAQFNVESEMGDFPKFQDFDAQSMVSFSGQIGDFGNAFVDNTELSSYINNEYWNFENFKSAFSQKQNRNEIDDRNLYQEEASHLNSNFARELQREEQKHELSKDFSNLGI

Upf1-TAP (S. cerevisiae) = target: T2, Upf1-TAP (S. cerevisiae) (UniProt P30771)
T2 sequence: T1 sequence

Upf2-TAP (S. cerevisiae) = target: T3, Upf2-TAP (S. cerevisiae) (UniProt P38798)
T3 sequence: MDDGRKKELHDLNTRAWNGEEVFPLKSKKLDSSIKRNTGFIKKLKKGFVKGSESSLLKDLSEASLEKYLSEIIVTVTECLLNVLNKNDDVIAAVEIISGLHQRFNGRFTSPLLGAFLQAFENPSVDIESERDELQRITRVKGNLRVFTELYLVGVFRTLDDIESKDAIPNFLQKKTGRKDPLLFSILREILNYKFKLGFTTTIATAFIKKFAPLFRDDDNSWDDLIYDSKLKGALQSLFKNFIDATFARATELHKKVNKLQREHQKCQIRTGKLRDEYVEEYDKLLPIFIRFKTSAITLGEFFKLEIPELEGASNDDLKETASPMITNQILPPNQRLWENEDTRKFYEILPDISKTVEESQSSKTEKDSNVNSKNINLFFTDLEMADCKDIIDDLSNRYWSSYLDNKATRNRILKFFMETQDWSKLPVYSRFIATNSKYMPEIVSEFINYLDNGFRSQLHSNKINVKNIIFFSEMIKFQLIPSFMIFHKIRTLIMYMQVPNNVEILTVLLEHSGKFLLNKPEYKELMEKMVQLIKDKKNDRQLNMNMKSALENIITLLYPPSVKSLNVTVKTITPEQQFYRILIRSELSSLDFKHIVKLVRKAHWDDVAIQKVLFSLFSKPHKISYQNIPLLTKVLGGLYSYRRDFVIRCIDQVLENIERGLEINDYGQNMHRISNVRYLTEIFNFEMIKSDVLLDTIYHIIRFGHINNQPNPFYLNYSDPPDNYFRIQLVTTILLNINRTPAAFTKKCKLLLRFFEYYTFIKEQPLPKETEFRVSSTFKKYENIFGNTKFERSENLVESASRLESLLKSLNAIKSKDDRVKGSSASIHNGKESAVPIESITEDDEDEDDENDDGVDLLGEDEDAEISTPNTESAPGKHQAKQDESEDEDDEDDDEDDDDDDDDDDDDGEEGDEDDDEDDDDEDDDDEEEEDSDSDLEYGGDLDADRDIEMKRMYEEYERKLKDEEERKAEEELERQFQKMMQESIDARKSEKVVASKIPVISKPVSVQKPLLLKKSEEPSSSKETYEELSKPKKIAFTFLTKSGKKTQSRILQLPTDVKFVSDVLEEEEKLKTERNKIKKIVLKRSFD

binding [1]: binds | binding (Upf1-TAP (S. cerevisiae)): binds | binding (Upf2-TAP (S. cerevisiae)): no binding
B1: Ebs1 (protein, UniProt Q03466 1-884)
chain: MEPSNTQKEDLPTAFNGIKSQLNSILKSNQLFQDYALLNGFLAFVHSKLNAAILTSIESQCGKSFAADLDSFDQSSISSILDFSWESVHYPIFKWFQMWRNYILFEKENKKQQTKFIDFRKMNSKMLKFFKTVQNFYVNVINTVYKKYDISVLLPKRIIQDLKLSDIENTTNVGDILAVKTFNSSSPLAHLIPTLFHRCLLFLGTAYRYKTLLEEISNKYSISNFKKSLDFFRLASLVLPSAGETYSQAGAIFLQTGNLGIAVFNFVKGMMTKMPSPVSIKNFGALMVDNKSSLNRSLHTTIMNTYLQESKGPRTPAKEILEFYFLGLFGSVWSPTSWRDDTKPNQLNNGIKLRHLENALYETMSARYLNNIKTIFHNLIITIGGFHLLLKRRSDVSAKTLKDLRSNELDYLNFAFKYIAHILNDIVKESWSENPEVSEILGMVRIINCWIKANPMVLQYSQSNLEFVNALAYLINDIVKKKPSPSFSITEHIPKRTYWFEEDLMVKGLSFVNFQLSDFDDYEKILEMDHSLDRLIGNPPLCDKLSASSEMLLRLQAVVNISSQLLQNNNCGVEWSDNKSRYIFNKKIGFKETVKNSMKTSKQSNEKAKLQRKNKPSTTNGSISMADLERQMRSSSLDSFSPTMGYSGSSVPMAPDTFNVKPSGTITGNKVNVELLKIELSGQNADGAITNISPGYSNAAISSSNSTDESSFDLNNILSSMQQKHAEKSFAKSMQGVNEQIPANDVCHQAQRPMQGGLYSSQQPSSMSSLNSAYQNASMPPSASMVSYPYPFLNQQGQGVFPPYNAQNLQWQSEAYSLKSMNFANPTWLGDQYQTSAPSSAYAQAQRQMFQQPMQQDVGKYMQFPFDAQSNTDSMRGNSRNNMF

binding [1]: binds | binding (Upf1-TAP (S. cerevisiae)): binds | binding (Upf2-TAP (S. cerevisiae)): no binding
B2: Nmd4 (protein, UniProt Q12129 1-218)
chain: MTQYNFIIDASAFEKGLGNIKRWCSDCTEAVTLNFYIPTFTLNELDFLQQRRKSFAARESLKFIDRLDDSKFANLKVFIEFPEVLDIILWSDVMEHNDSSGKINIAKLPKRLKNLLKSCIYKCYLEGNEGLHWFLISEDPQIREMAMQCNIPSCSIVDVDSILSKDMNDKSFRESEKFNNMMLKNGTKEESENGREIIRTNFNKTVYASRGTGELWSP
